Paper PMC11837641
No constants are given. Whether binding was seen depends on the method and setting. In cells and extracts the contact can be indirect. These calls come from enrichment with a bait or labelling near it, and not all partners need be listed.

Amino acid sequences for entries named in this document (tags omitted). Residues count along the entry.
UniProt O43707: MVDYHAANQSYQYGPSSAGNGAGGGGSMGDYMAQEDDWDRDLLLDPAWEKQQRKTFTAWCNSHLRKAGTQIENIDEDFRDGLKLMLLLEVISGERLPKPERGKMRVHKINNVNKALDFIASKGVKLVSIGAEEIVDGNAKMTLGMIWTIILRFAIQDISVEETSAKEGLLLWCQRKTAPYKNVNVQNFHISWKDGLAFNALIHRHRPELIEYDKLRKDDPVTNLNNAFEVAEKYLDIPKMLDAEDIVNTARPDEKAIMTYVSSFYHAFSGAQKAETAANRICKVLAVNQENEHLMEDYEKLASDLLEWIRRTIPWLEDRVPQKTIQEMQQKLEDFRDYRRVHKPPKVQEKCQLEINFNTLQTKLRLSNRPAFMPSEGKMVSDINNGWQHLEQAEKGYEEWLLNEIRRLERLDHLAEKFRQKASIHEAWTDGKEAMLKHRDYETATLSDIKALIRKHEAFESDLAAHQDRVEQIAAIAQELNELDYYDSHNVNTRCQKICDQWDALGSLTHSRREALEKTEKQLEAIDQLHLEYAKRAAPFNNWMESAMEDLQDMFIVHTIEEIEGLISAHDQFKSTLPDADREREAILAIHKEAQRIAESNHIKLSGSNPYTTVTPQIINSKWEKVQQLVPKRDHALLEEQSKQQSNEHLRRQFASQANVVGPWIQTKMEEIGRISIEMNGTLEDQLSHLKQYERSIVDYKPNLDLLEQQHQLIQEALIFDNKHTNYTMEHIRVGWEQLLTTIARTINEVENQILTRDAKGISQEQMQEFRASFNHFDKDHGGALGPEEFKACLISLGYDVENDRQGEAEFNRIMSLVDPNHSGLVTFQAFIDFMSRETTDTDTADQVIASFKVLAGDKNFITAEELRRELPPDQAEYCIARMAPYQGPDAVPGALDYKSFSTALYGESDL
UniProt P08238: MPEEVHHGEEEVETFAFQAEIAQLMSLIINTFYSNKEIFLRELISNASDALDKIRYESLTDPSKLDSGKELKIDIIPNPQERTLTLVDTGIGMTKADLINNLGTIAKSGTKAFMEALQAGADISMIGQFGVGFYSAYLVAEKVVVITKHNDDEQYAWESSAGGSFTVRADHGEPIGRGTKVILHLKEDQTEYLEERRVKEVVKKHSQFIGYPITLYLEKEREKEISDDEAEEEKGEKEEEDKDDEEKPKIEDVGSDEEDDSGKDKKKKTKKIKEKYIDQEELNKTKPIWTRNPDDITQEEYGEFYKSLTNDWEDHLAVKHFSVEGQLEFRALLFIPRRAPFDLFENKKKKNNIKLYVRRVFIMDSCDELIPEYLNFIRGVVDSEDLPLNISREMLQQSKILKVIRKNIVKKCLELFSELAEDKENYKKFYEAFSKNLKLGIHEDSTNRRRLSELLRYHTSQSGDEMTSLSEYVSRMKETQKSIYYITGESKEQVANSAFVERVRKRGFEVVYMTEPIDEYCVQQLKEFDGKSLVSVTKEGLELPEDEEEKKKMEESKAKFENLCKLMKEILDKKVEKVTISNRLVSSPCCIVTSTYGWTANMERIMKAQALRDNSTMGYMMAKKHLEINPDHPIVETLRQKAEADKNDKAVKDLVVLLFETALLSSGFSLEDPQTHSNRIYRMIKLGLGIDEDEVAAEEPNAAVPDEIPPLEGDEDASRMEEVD
UniProt P30086: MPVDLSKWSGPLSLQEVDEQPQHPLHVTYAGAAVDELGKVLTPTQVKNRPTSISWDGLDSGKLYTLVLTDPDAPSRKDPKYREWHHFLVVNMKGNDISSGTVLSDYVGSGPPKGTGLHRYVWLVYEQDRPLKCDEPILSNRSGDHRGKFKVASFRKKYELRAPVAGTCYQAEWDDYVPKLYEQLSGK
UniProt P04406: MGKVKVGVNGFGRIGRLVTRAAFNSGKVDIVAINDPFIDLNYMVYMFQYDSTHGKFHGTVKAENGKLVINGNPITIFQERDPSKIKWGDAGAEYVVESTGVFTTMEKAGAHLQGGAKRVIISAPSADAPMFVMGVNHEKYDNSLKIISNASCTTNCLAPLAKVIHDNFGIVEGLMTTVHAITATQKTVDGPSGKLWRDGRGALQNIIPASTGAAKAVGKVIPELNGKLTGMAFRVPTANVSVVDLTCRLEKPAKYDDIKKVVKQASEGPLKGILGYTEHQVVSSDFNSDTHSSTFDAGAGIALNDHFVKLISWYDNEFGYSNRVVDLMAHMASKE
UniProt P02545, residues 1-646: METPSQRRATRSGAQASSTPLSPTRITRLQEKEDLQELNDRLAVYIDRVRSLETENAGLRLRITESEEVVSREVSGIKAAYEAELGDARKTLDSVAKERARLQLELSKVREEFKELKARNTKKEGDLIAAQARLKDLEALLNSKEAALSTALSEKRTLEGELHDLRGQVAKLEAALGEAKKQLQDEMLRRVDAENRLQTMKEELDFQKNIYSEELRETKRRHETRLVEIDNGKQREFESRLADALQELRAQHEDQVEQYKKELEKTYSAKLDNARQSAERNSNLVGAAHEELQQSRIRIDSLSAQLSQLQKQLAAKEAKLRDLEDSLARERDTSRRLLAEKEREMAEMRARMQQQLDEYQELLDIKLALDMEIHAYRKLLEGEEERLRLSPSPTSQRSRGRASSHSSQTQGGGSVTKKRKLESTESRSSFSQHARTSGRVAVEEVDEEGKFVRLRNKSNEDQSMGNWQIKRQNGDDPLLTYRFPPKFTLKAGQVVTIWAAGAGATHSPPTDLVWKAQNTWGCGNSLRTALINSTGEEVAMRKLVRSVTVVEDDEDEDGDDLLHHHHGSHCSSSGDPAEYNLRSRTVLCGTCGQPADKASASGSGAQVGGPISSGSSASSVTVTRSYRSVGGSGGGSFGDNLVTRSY
UniProt P08670: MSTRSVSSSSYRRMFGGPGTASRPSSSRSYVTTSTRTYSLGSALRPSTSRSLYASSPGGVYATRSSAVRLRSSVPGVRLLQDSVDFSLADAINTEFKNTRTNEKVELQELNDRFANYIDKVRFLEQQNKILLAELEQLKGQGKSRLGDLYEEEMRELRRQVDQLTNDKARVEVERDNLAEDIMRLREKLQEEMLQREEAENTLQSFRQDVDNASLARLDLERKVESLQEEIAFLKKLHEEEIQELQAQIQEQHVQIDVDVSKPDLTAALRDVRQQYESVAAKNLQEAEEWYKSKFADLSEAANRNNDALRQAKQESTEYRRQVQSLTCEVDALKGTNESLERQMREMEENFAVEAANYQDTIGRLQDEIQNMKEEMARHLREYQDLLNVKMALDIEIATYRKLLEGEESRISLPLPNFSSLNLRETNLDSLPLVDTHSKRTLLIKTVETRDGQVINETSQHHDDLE
UniProt Q9BVL2: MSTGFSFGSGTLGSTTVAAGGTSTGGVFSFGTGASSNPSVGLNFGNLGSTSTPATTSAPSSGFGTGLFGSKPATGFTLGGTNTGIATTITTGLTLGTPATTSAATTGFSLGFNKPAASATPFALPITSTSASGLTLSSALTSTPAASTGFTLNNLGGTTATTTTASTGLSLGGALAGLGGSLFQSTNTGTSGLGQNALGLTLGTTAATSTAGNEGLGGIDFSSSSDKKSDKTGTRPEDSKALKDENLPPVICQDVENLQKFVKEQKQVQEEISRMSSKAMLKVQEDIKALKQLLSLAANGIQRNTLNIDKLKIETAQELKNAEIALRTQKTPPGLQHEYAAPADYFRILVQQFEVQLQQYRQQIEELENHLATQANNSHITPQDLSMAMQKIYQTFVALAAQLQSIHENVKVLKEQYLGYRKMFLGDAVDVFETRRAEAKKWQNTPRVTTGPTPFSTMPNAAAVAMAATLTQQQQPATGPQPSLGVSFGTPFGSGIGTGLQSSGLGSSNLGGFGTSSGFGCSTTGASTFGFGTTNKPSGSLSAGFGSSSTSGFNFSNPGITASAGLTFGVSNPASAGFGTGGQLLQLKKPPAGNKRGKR
UniProt Q14315: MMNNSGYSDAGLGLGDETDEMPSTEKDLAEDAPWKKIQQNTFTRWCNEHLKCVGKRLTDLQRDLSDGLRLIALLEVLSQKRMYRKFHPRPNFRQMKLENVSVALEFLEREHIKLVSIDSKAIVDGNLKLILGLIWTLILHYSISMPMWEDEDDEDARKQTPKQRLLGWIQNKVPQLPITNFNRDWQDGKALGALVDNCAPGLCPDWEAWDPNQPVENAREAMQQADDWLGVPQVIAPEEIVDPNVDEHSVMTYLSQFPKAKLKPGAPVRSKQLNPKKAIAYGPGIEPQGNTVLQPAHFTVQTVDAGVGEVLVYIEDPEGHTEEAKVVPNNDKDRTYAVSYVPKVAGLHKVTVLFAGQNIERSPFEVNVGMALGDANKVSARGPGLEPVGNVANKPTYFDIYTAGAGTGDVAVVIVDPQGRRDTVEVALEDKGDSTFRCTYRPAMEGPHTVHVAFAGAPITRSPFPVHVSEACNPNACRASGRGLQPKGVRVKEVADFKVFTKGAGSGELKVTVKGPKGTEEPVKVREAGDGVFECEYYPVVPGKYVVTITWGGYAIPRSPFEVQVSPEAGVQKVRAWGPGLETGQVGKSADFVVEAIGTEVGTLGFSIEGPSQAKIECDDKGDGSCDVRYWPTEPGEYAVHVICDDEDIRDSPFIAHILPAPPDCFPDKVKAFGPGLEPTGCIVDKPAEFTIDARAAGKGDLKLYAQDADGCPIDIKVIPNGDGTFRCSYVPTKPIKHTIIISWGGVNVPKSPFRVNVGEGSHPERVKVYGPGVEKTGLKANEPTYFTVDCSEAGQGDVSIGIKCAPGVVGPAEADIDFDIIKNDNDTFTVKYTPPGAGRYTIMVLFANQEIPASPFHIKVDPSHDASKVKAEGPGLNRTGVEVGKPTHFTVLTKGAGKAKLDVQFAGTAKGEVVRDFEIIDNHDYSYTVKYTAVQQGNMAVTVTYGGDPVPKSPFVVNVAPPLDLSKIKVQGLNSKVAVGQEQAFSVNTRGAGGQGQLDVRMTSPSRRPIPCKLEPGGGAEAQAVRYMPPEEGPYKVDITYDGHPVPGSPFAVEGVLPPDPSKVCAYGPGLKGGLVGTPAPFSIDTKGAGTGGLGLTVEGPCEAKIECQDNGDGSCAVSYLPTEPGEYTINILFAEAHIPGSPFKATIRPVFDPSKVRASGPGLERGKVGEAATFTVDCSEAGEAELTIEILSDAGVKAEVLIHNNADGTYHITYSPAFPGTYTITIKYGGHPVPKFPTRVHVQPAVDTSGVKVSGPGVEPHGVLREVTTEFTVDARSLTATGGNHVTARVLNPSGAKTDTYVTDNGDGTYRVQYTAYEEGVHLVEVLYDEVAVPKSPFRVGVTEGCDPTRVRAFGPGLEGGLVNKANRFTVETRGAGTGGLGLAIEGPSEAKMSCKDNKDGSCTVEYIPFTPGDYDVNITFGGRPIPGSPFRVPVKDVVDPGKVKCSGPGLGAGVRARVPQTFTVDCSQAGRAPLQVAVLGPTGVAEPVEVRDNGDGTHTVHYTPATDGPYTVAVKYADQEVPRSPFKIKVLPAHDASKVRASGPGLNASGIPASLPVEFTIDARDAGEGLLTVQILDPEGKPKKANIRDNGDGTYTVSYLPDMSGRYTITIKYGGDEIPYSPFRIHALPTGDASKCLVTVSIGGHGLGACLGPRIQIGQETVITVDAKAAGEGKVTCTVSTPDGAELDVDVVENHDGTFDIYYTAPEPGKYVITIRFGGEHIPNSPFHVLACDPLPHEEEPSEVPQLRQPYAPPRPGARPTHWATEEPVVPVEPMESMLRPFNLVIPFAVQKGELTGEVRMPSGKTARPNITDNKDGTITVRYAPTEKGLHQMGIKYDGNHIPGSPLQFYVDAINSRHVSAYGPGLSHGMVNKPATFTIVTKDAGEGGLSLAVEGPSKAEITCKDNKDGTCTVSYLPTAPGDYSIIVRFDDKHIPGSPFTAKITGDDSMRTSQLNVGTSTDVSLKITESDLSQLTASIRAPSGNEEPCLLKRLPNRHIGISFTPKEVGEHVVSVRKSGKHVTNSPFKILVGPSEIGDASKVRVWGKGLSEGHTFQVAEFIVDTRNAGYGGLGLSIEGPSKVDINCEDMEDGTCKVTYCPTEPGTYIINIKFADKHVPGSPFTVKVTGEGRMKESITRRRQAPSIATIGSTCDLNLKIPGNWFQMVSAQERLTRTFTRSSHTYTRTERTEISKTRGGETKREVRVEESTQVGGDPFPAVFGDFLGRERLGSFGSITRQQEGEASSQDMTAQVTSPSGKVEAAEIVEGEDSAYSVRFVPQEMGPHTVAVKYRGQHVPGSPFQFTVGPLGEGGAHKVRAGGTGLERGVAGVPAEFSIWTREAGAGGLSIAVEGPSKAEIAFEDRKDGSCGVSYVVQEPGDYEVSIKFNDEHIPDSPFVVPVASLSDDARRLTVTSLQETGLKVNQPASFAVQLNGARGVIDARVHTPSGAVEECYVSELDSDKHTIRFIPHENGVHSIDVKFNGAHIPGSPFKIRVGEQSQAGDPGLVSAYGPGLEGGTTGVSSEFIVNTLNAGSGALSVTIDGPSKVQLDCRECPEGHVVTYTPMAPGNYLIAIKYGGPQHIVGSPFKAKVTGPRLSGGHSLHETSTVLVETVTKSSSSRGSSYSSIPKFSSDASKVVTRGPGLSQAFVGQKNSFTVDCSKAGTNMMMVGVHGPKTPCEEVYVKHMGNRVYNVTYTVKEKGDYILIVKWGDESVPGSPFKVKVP

Molecular target: matrix metalloproteinase 28 (MMP28) (human (endogenous in AsPC-1 and BxPC-3)) (UniProt Q9H239)
Assay: affinity purification with mass spectrometry; AsPC-1 whole-cell lysate (enhanced RIPA buffer) incubated with MMP28 antibody or IgG control at 4 °C overnight, protein A/G agarose 3 h, five RIPA washes; LC-MS/MS; top 30 candidates listed

Substance	binding
ACTN4 (from UniProt O43707 1-911)	binds
ENO1 (from UniProt P06733 1-434)	binds
HSP90AB1 (from UniProt P08238 1-724)	binds
HSPA8 (from UniProt P11142 1-646)	binds
HSPD1 (from UniProt P10809 27-573)	binds
PEBP1 (from UniProt P30086 1-187)	binds
PKM (from UniProt P14618 1-531)	binds
TUBA1B (from UniProt P68363 1-451)	binds
YWHAZ (from UniProt P63104 1-245)	binds
annex protein A2 (ANXA2) (from UniProt P07355 1-339)	binds

Now from value to substance:

binding	Substance
binds	FLNB (from UniProt O75369 1-2602)
binds	GAPDH (from UniProt P04406 1-335)
binds	GPI (from UniProt P06744 1-558)
binds	IGKV4-1 (from UniProt P06312 21-121)
binds	LMNA (from UniProt P02545 1-646)
binds	VIM (from UniProt P08670 1-466)
binds	YWHAE (from UniProt P62258 1-255)

Molecular target: matrix metalloproteinase 28 (MMP28) (human (endogenous in AsPC-1 and BxPC-3)) (UniProt Q9H239)
Assay: affinity purification with mass spectrometry; BxPC-3 whole-cell lysate (enhanced RIPA buffer) incubated with MMP28 antibody or IgG control at 4 °C overnight, protein A/G agarose 3 h, five RIPA washes; LC-MS/MS; top 30 candidates listed

Substance	binding
ENO1 (from UniProt P06733 1-434)	binds
GSTP1 (from UniProt P09211 1-210)	binds
MUC19 (from UniProt Q7Z5P9 22-8384)	binds
NUPL1 (from UniProt Q9BVL2 1-599)	binds
PKM (from UniProt P14618 1-531)	binds
RPLP2 (from UniProt P05387 1-115)	binds
TLN1 (from UniProt Q9Y490 1-2541)	binds
TTN (from UniProt Q8WZ42 1-34350)	binds
annex protein A2 (ANXA2) (from UniProt P07355 1-339)	binds

More lines, now with the values ahead:

binding	Substance
binds	FLNC (from UniProt Q14315 1-2725)
binds	GAPDH (from UniProt P04406 1-335)
binds	PCLO (from UniProt Q9Y6V0 1-5142)
binds	TUBA1C (from UniProt Q9BQE3 1-449)
